The test is described as follows: qHTS Assay for Lipid Storage Modulators in Drosophila S3 Cells.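 For cell number change: cells counted by Cell Tracker Red CMTPX staining in the red channel.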 Particulars: BODIPY lipid droplet fluorescence, 18-24 h; for cell number change: measured here: cell count max response, cells fed with added oleic acid. The method, boiled down: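 Laser-scanning cytometry quantifies lipid droplet accumulation (500–530 nm total intensity; droplet/cell object ratio) in oleic acid-fed (400 uM added) Drosophila S3 cells treated with a concentration series. 20 uM Triacsin C defined 100% inhibition.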
On the technique in general: qHTS replaces the single test concentration by a dilution series.

[1] abbreviates: measured here: lipid fluorescence (Fed channel) AC50, cells fed with added oleic acid.
Where [2] appears, read: measured here: cell number channel AC50, cells fed with added oleic acid.

What is called AC50 is the concentration giving half of the maximal activity seen. A lower AC50 goes with greater potency.

This is one part of the list. The main result of the screen is listed elsewhere. These columns were measured beside it and carry no call. Most of these compounds were active or inconclusive in the main read-out, so they are no random draw. Words in brackets tell the shape of the fitted curve; partial curves, single points and poor fits give uncertain potencies.

Turning to `O=C(CCc1nnc(CCCc2ccccc2)o1)NCCc1ccccc1`, the cell number change is -8.19%. In addition, the concentration at half-maximal activity (AC50) under setting [1] is 6.51 µM [falling, single point]. `COc1cc(OC)c2cc(C(=O)N/N=C/c3ccccc3O)[nH]c2c1`: the cell number change is -14.7%. The concentration at half-maximal activity (AC50) under setting [1] was 14.6 µM [falling, single point]. Regarding `O=C(C1CCN(S(=O)(=O)c2ccccc2)CC1)N1CCCCC1`, the cell number change stood at 18.4%. In addition, the half-maximal activity concentration (AC50) under setting [2] was 0.0058 µM [rising, full curve, poor fit].

Turning to `Brc1cc2c(cc1CSc1ncccn1)OCO2`, the cell number change stood at 7.08%. In the case of `Cc1ccc2[nH]c3c(N4CCCCCC4)ncnc3c2c1`, the cell number change is -190%. Besides, the half-maximal activity concentration (AC50) under setting [2] is 29.1 µM [falling, single point]. As to `O=C(CCn1cnc2ccccc2c1=O)Nc1cccc(Cl)c1Cl`, the half-maximal activity concentration (AC50) under setting [1] is 0.00461 µM [falling, full curve, poor fit]. For `O=C(NC1CCCCC1)C(c1ccccc1)N(Cc1ccc2c(c1)OCO2)C(=O)c1cnsn1` (configuration not stated), the cell number change was -50.7%. Further, under setting [2], the half-maximal activity concentration (AC50) was 16.4 µM [falling, single point]. Under setting [1], the half-maximal activity concentration (AC50) was 20.6 µM [falling, partial curve]. On to `COCCn1c(N)c(Sc2ccc(C)cc2)c(=O)[nH]c1=O`, for which the cell number change was -1.28%. As for `CCc1ccccc1NC(=S)N(CCCN(C)C)Cc1cc2cc3c(cc2[nH]c1=O)OCO3`, the cell number change was 33.2%. Also, the AC50 under setting [2] was 0.461 µM [rising, full curve]. In addition, the AC50 under setting [1] was 1.3 µM [rising, full curve, poor fit]. For the compound `Cc1sc(NC(=O)C2CC=CCC2C(=O)O)c(C(=O)OC(C)C)c1C` (configuration not stated), the cell number change turned out to be 59.3%. In addition, under setting [2], the AC50 was 2.31 µM [rising, partial curve].

For `Cc1ccc(-c2nc3ccccc3o2)cc1NC(=S)NC(=O)c1cccs1`, the cell number change is -18.4%. The AC50 under setting [1] is 13 µM [falling, single point]. With `COc1ccc(-n2nc3cc(C)c(N)c(Br)c3n2)cc1`, the cell number change was -21.6%. Further, the AC50 under setting [1] was 0.82 µM [rising, full curve].

Consider `N#Cc1nc(N)nc(N(c2ccccc2)c2ccccc2)n1`, for which the cell number change was -26.4%. Besides, under setting [1], the half-maximal activity concentration (AC50) was 10.3 µM [falling, partial curve, poor fit]. Consider `COc1ccc(CN2CCc3c([nH]c4ccccc34)C2)cc1Br`, for which the cell number change was -10.4%.

In the case of `COc1ccc2nc3oc(C(=O)N4CC(C)CC(C)C4)cc3cc2c1` (configuration not stated), the cell number change was -12.4%. In addition, the half-maximal activity concentration (AC50) under setting [1] is 0.58 µM [rising, single point]. For `COc1ccccc1C/C(N)=N/OC(=O)c1ccc2c(c1)OCO2`, the cell number change was found to be 31.6%. For the compound `CC(CNC(=O)CCC(=O)N1CCOc2ccc(Cl)cc21)c1ccccc1` (configuration not stated), the half-maximal activity concentration (AC50) under setting [1] was 0.517 µM [falling, full curve]. With `CC(C)(C)CC(=O)NC(=S)NCc1ccccc1`, the cell number change was -17.2%. Also, under setting [1], the AC50 is 0.164 µM [rising, single point].

Take `CC(C)Oc1ccc(C(CC(=O)O)Cc2ccccc2)cc1` (configuration not stated): the cell number change is 22.9%. Further, the concentration at half-maximal activity (AC50) under setting [1] is 23.1 µM [falling, partial curve]. On to `C#Cc1cccc(C(=O)N2CCCC(Nc3cccc(F)c3)C2)c1` (configuration not stated), for which the cell number change is -18.8%. Moreover, under setting [1], the half-maximal activity concentration (AC50) was 23.1 µM [rising, single point]. Consider `CCOC(=O)/C=C/[C@H]1Cc2ccccc2CO1`, for which the cell number change is -31.2%. Also, the AC50 under setting [2] is 0.082 µM [falling, full curve, poor fit]. Moreover, the concentration at half-maximal activity (AC50) under setting [1] was 0.13 µM [rising, full curve, poor fit].

For the compound `CCOC(=O)c1cc(=O)n2nc(-c3ccc(C)cc3)nc2s1`, the cell number change came out at 5.65%. For the compound `COc1ccc2c(c1OC)C(=O)N(c1ccc(C)cc1)C2=O`, the cell number change worked out at 121%. Also, the half-maximal activity concentration (AC50) under setting [2] was 29.1 µM [rising, single point].

Turning to `CN1CCN(S(=O)(=O)c2ccc(NC(=O)c3ccc(F)cc3)cc2)CC1`, the cell number change was determined as 6.41%.

For `COc1ccc(OC)c(-c2cnc(OC(C)(C)C)nc2OC(C)(C)C)c1`, the cell number change was -8.46%. Besides, under setting [1], the AC50 was 4.11 µM [falling, partial curve, poor fit].

Take `COc1cccc(N2CC(O)Cn3c2nc2c3c(=O)n(CCCc3ccccc3)c(=O)n2C)c1` (configuration not stated): the cell number change is -31.2%. Under setting [2], the concentration at half-maximal activity (AC50) was 0.92 µM [falling, full curve, poor fit]. On to `COc1ccc(CCN=C2SCC(=O)N2C)cc1OC`, for which the concentration at half-maximal activity (AC50) under setting [2] was 0.461 µM [falling, single point]. On to `CC1CCCCC1NC(=O)CN1C(=O)NC(C)(c2cccc(Br)c2)C1=O` (configuration not stated), for which the cell number change is -12.8%. Besides, the AC50 under setting [2] is 5.8 µM [falling, single point]. The AC50 under setting [1] was 10.3 µM [falling, partial curve].

Regarding `Cc1ccc(Cn2c(O)c(N=NC(=S)Nc3ccccc3F)c3ccccc32)cc1`, the cell number change was -40.1%. Besides, the AC50 under setting [2] is 18.4 µM [falling, partial curve]. Besides, the AC50 under setting [1] was 14.6 µM [falling, partial curve, poor fit].

Turning to `COc1cccc([C@@H]2CC=C(C(=O)O)[C@H](c3ccccc3)N2S(=O)(=O)c2ccc(C)cc2)c1`, the cell number change stood at 21.2%. Under setting [1], the AC50 was 0.651 µM [rising, single point]. As to `COc1cc(OC)c(C2SCCCS2)cc1OC`, the cell number change is 2.9%. Besides, the AC50 under setting [1] was 8.2 µM [rising, partial curve]. In the case of `CCCc1nnc(NC(=O)CC(C)c2ccccc2)s1` (configuration not stated), the cell number change is 25.3%. Besides, the half-maximal activity concentration (AC50) under setting [1] was 6.51 µM [rising, single point].

As for `COC(=O)Cn1cnc2c(nnn2-c2ccc(OC)cc2)c1=O`, the cell number change is -0.37%. Take `O=C1CCCN2N=C(SCC(=O)Nc3ccc(F)cc3F)SC2=N1`: the cell number change was -0.952%. The AC50 under setting [2] is 0.231 µM [falling, full curve, poor fit]. For the same compound, under setting [1], the half-maximal activity concentration (AC50) was 6.51 µM [falling, partial curve].

As for `Cc1n[nH]c(=S)n1/N=C/c1ccccc1OCc1ccc(Cl)cc1`, the cell number change was -3.71%. Further, the AC50 under setting [1] is 20.6 µM [falling, partial curve, poor fit].

Consider `CCOc1ccccc1NC(=O)NCCCCc1ccccc1`, for which the cell number change is -47.5%. The AC50 under setting [2] was 22.4 µM [falling, single point]. Further, the AC50 under setting [1] is 11.2 µM [falling, partial curve]. For the compound `Cc1ccc(SCC(=O)Nc2oc(C)c3c(C)n[nH]c(=O)c23)cc1C`, the cell number change came to 30.6%. The concentration at half-maximal activity (AC50) under setting [2] is 20.6 µM [rising, single point]. Under setting [1], the AC50 was 23.1 µM [rising, single point]. For the compound `Cc1ccc(CN2CCN(Cc3cnc(N(C)C)s3)CC2CCO)o1` (configuration not stated), the cell number change is 0.141%. The AC50 under setting [1] was 3.26 µM [falling, single point]. On to `O=S1(=O)CCN(Cc2ccc(Cl)c(C(F)(F)F)c2)CC1`, for which the cell number change was found to be 37.9%. Under setting [2], the AC50 was 0.651 µM [falling, single point]. For the compound `Nc1nc(CSCCO)nc(Nc2ccccc2)n1`, the cell number change came out at 20%. On to `O=C(NCc1ccccn1)c1cc(-c2ccccc2)nc2ccccc12`, for which the cell number change was 11.5%. In addition, under setting [1], the AC50 is 0.0517 µM [rising, partial curve, poor fit].

For the compound `COc1ccc(NC(=S)N2CCCC2)cc1OC`, the cell number change is -41.2%. As for `C=CC[n+]1c(-c2ccc(C)cc2)csc1Nc1ccc(NC(C)=O)cc1`, the AC50 under setting [2] was 0.116 µM [rising, single point]. As for `O=C(Cn1ccc2ccccc2c1=O)NCCC(=O)N1CCN(C2CCCCC2)CC1`, the cell number change was -106%. Further, the AC50 under setting [2] was 8.2 µM [falling, partial curve]. Also, under setting [1], the half-maximal activity concentration (AC50) is 29.1 µM [falling, single point].

Take `COCCCNC(=O)CN1C(=O)c2ccccc2C1=O`: the cell number change is -34.2%. Further, the AC50 under setting [2] is 1.46 µM [falling, full curve]. Moreover, the AC50 under setting [1] is 2.31 µM [falling, full curve]. In the case of `Cc1ccc(S(=O)(=O)N2CCN(c3ccc(C(=O)N4CCOCC4)cc3[N+](=O)[O-])CC2)cc1`, the cell number change was -17.6%. In addition, the half-maximal activity concentration (AC50) under setting [1] was 20.6 µM [falling, partial curve]. As for `COc1ccc(CNC(=O)CN(C(=O)c2csnn2)c2cccc3ccccc23)cc1`, the cell number change came out at 28.2%. The AC50 under setting [2] was 0.00517 µM [rising, full curve, poor fit]. In addition, under setting [1], the AC50 was 29.1 µM [rising, single point]. Consider `CCOC(=O)c1ccc(NC(=O)c2cccc(S(=O)(=O)N3CCN(C(C)=O)CC3)c2)cc1`, for which the cell number change was -23.7%. Besides, under setting [1], the AC50 was 5.62 µM [falling, single point].

Consider `Cc1ccc(C(=O)NCC(=O)OCCCn2c(=O)[nH]c3ccccc32)cc1`, for which the cell number change was -15.3%. Take `O=C(CSc1nnc(-c2ccccc2Br)o1)N1CCN(C(=O)c2ccco2)CC1`: the cell number change was -23.9%. Besides, the half-maximal activity concentration (AC50) under setting [1] is 0.00461 µM [rising, full curve, poor fit]. In the case of `COc1cccc(-c2ccc3c(c2)S(=O)(=O)c2cccc(C(=O)O)c2C3=O)c1OC`, the AC50 under setting [1] was 0.82 µM [falling, partial curve]. Take `CN(CC1CCOCC1)C(=O)c1ccc2nc(Cc3cccc(Cl)c3)oc2c1`: the cell number change is -1.76%. In addition, the concentration at half-maximal activity (AC50) under setting [1] was 1.84 µM [falling, single point].

Turning to `Cc1ccc(N/C=C2\C(=O)C3(C)CCC2C3(C)C)cc1C` (configuration not stated), the cell number change came to 23.9%. In addition, under setting [1], the AC50 is 1.03 µM [rising, full curve]. As for `Cc1c(S(=O)(=O)Nc2ccc(Br)cc2)c(=O)n(C)c(=O)n1C`, the cell number change was -1.15%. Further, under setting [2], the half-maximal activity concentration (AC50) is 0.651 µM [rising, full curve, poor fit]. For the same compound, under setting [1], the half-maximal activity concentration (AC50) was 5.17 µM [rising, full curve].

For the compound `Cc1cccc(-c2nnc(NC(=O)c3ccc(Cl)cc3)o2)c1`, the cell number change is -27.3%. Take `Cc1nn(C(C)C(=O)NCc2ccco2)c(C)c1[N+](=O)[O-]` (configuration not stated): the cell number change was -40.9%. Besides, under setting [2], the AC50 was 29.1 µM [falling, single point]. The AC50 under setting [1] is 29.1 µM [falling, single point]. For the compound `COc1ccc(C(=O)Nc2ccc(C(=O)N3CCC(C)CC3)cc2)cc1OC`, the cell number change amounted to 8.11%. On to `Cn1c(=O)c2c(-c3ccccc3)n(Cc3cccnc3)cc2n(C)c1=O`, for which the cell number change was -4.1%. Under setting [2], the AC50 was 5.8 µM [falling, single point]. Also, the half-maximal activity concentration (AC50) under setting [1] was 5.17 µM [falling, single point]. Take `COc1cc(OC)cc(N2CC(C)(C)C2=O)c1`: the cell number change is -20.5%. For `CN(C)C(=O)c1ccc(NC(=O)c2cc(-n3cnnc3)ccc2Cl)cc1`, the cell number change worked out at 1.92%.

With `CCC1=NN(C(=O)c2cccc(Br)c2)C(O)(c2ccc(Br)cc2)C1` (configuration not stated), the concentration at half-maximal activity (AC50) is, setting by setting: under setting [2], 4.11 µM [falling, partial curve]; under setting [1], 1.84 µM [falling, partial curve, poor fit].

For the origin of these results see PubChem BioAssay AID2685 (National Center for Advancing Translational Sciences (NCATS), 2010).
